Laboratory results taken from PubChem BioAssay AID1347076 (National Center for Advancing Translational Sciences (NCATS), 2019).
The whole screen tested about 400,000 compounds, of which about 13,000 (3.2%) were called active. Inconclusive results, whose numbers are uncertain, are shown with a selection of clear calls. The call rests on the fitted dose curve; in most records, active means well fitted cell-killing curve with a large enough effect; inconclusive means small, poorly fitted or top-dose-only effect, or effect the other way; inactive means flat fitted curve, though single readings scatter. Where the call is inconclusive, the potency comes from a doubtful curve fit.

assay: qHTS assay for MDR1-selective chemotherapeutics: Primary screen using the drug-selected MDR subline cells KB-V1; conditions: KB-V1 MDR cells viability, CellTiter-Glo, 72 h; activity change, negative = cytotoxicity: at 46.1 µM (top of the series); further: nearly all actives have a fitted effect of over 60% in size
Summary of the method: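 qHTS viability screen in drug-selected KB-V1 MDR cells: 72 h compound treatment at 37 degrees C, ATP luminescence end point.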
On the % scale 0 is the no-effect control and ±100 the full control effect; potency means the concentration at half of the fitted maximal effect.

Row | SMILES | Potency | activity change, negative = cytotoxicity
1 | CC(C)Cc1nnc(NC(=O)CCC(=O)N2CCN(CCOC(c3ccccc3)c3ccccc3)CC2)s1 | inconclusive: 29.1 µM [cytotoxic, single point] | 
2 | COc1ccc(-n2nnnc2C(c2cccc(OC)c2OC)N2CCC(n3c(=O)[nH]c4ccccc43)CC2)cc1 (configuration not stated) | inconclusive: 29.1 µM [cytotoxic, single point] | 
3 | COc1ccc(-c2cc(C(=O)N3CCC4(CC3)OCCO4)c3ccccc3n2)cc1 | inconclusive: 32.6 µM [cytotoxic, single point] | 
4 | COc1cc2c(cc1OC)[C@@H]1C(=O)c3ccc4c(c3O[C@@H]1CO2)C[C@H](C(C)C)O4 | inconclusive: 0.82 µM [cytotoxic, full curve, poor fit] | 
5 | O=c1c2ccccc2nc(-c2ccco2)n1-c1ccc(Br)cn1 | inconclusive: 23.1 µM [cytotoxic, partial curve, poor fit] | 
6 | CCN(CC)c1ccccc1 |  | inactive: 8.08%
7 | Cc1ccc(CN2CCCC(C(=O)c3cccc(C(F)(F)F)c3)C2)o1 (configuration not stated) | inconclusive: 29.1 µM [cytotoxic, single point] | 
8 | COCCNC(=O)c1c(N)n(CCC(C)C)c2nc3ccccc3nc12 | active: 16.4 µM | 
9 | COc1ccc(NC(=S)N2Cc3ccccc3-n3nncc3C2)c(OC)c1 |  | inactive: -11.2%
10 | O=c1c2ccccc2nc(N2CCCC2)n1-c1ccccc1 | inconclusive: 4.61 µM [rising, full curve, poor fit] | 
11 | O=c1[nH]c2ccccc2n1C1CCN(C(c2cccs2)c2nnnn2-c2ccc3c(c2)OCCO3)CC1 (configuration not stated) | inconclusive: 3.26 µM [cytotoxic, full curve, poor fit] | 
12 | CCOC(=O)[C@]12Cc3cc(Cl)ccc3[C@H]1N(C)C(=O)c1cc(OC)ccc12 | active: 4.11 µM | 
13 | CN(C)c1ccc(/C=C2\C(=O)NC(=O)N(CCc3ccc(F)cc3)C2=O)cc1 |  | inactive: 10.8%
14 | COc1ccc(CNCCc2c(C)[nH]c3ccc(OC(F)(F)F)cc23)c(OC)c1 | active: 7.31 µM | 
15 | CCCCCN1C(=O)c2ccccc2[C@@]2(C(=O)OCC)Cc3cc(OC)ccc3[C@@H]12 | inconclusive: 32.6 µM [cytotoxic, partial curve, poor fit] | 
16 | CCOc1ccc2nc(N3CCC(C(=O)N4CCC5(CC4)OCCO5)CC3)sc2c1 | active: 2.91 µM | 
17 | CCCCCCC(Cl)(Cn1ccnc1)c1ccccc1 (configuration not stated) | inconclusive: 32.6 µM [cytotoxic, single point] | 
18 | O=C(NCCN1CCOCC1)c1ccc(Cl)nc1Cl |  | inactive: 14.3%
19 | COc1ccc(OC)c(CN2CCCC(C(=O)c3sccc3C)C2)c1 (configuration not stated) | inconclusive: 10.3 µM [cytotoxic, partial curve] | 
20 | COc1cc2c(c(OC)c1OC)-c1ccc(O)c(=O)cc1C(NC(C)=O)CC2 (configuration not stated) | inconclusive: 16.4 µM [cytotoxic, single point] | 
21 | CN(C)c1nc(N(C)C)nc(N(C#N)CCCl)n1 | inconclusive: 29.1 µM [cytotoxic, single point] | 
22 | CN1CCC(OC(=O)C2c3ccccc3Oc3ccccc32)CC1 |  | inactive: -1.35%
23 | O=[N+]([O-])c1cc2c(cc1CNCCc1ccc3c(c1)OCO3)OCO2 | inconclusive: 29.1 µM [cytotoxic, single point] | 

Row | SMILES | Potency | activity change, negative = cytotoxicity
24 | COC1C(C)OC(OC2CC(C)(O)Cc3cc4c(c(O)c32)C(=O)c2c(O)cc3c(c2C4=O)OC2OC3(C)C(O)C(N(C)C)C2O)C(OC)C1(C)OC (configuration not stated) |  | inactive: -20.6%
25 | c1ccc(CNC2CCCCCCC2)cc1 (tested in a mixture with another compound) | active: 23.1 µM | 
26 | O=C1c2ccccc2-c2cc3ccccc3cc21 | inconclusive: 18.4 µM [cytotoxic, single point] | 
27 | C[C@@H]1COc2cc(N3CCN(C)CC3)ccc2S(=O)(=O)N1 | inconclusive: 18.4 µM [rising, partial curve, poor fit] | 
28 | C[C@]12CC[C@H](O)CC1=CCC1C2CC[C@]2(C)C(=O)[C@H](Br)CC12 (some centres not stated) | inconclusive: 29.1 µM [cytotoxic, single point] | 
29 | Cc1cc(C(=O)OCC(=O)Nc2ccc(F)cc2F)c(C)n1C1CC1 | inconclusive: 18.4 µM [cytotoxic, single point] | 
30 | Cc1nn(Cc2ccc(Cl)cc2Cl)c(Cl)c1C(=O)Nc1ccc(OC(F)F)cc1 | inconclusive: 13 µM [cytotoxic, partial curve] | 
31 | CCOC(=O)CNC(=O)N1Cc2ccccc2-n2nncc2C1 |  | inactive: -14.6%
32 | CCOC(=O)C1(CCOc2ccccc2)CCN(Cc2cccc(O)c2)CC1 |  | inactive: -0.941%
33 | O=C(CCCN1CCC2(CC1)C(=O)NCN2c1ccccc1)c1ccc(F)cc1 | inconclusive: 23.1 µM [cytotoxic, partial curve, poor fit] | 
34 | CC(=NCCC(c1ccccc1)c1ccccc1)c1c(O)n(C)c(=O)n(C)c1=O | inconclusive: 23.1 µM [cytotoxic, single point] | 
35 | Cc1cccc(C)c1-n1nnnc1C(c1cccs1)N1CCC2(CC1)C(=O)NCN2c1ccccc1 (configuration not stated) | inconclusive: 29.1 µM [cytotoxic, single point] | 
36 | CN(C)C1(CNC(=O)c2cc(S(=O)(=O)N3CCOCC3)c(Cl)cc2Cl)CCCCC1 | inconclusive: 18.4 µM [cytotoxic, partial curve] | 
37 | COC(=O)C1=C(c2cccc(NC(C)=O)c2)C[C@@H]2CC[C@H]1N2C |  | inactive: -0.765%
38 | COc1ccc(C(c2nnnn2-c2ccc(OC)cc2)N2CCC(n3c(=O)[nH]c4ccccc43)CC2)cc1 (configuration not stated) | inconclusive: 29.1 µM [cytotoxic, single point] | 
39 | O=c1[nH]c2ccccc2n1C1CCN(C(CCc2ccccc2)c2nnnn2-c2ccc3c(c2)OCCO3)CC1 (configuration not stated) | active: 23.1 µM | 
40 | c1ccc2c(c1)[IH]c1ccccc1-2 | inconclusive: 2.06 µM [cytotoxic, partial curve, poor fit] | 
41 | C[N+]12CCC(CC1)C(C#N)(N1CCOCC1)C2 (configuration not stated) | inconclusive: 14.6 µM [rising, single point] | 
42 | O=C(c1cc(-c2ccccc2)nc2ccccc12)N1CCC2(CC1)OCCO2 | inconclusive: 20.6 µM [cytotoxic, single point] | 
43 | CN1CCN(Cc2ccccc2C(F)(F)F)CC1 | inconclusive: 14.6 µM [rising, single point] | 
44 | CC(C)Oc1cccnc1N(C)C1CCN(Cc2ccccc2)CC1 | inconclusive: 6.51 µM [cytotoxic, partial curve] | 
45 | CC1=C(N2CC2)C(=O)C(CO)=C(N2CC2)C1=O | active: 0.259 µM | 
46 | CC(C(=O)c1c[nH]c2ccccc12)N1CCOCC1 (configuration not stated) |  | inactive: -13.9%

3 consecutive compounds already listed, quoted:
Row | SMILES | Potency | activity change, negative = cytotoxicity
30 | Cc1nn(Cc2ccc(Cl)cc2Cl)c(Cl)c1C(=O)Nc1ccc(OC(F)F)cc1 | inconclusive: 13 µM [cytotoxic, partial curve] | 
31 | CCOC(=O)CNC(=O)N1Cc2ccccc2-n2nncc2C1 |  | inactive: -14.6%
32 | CCOC(=O)C1(CCOc2ccccc2)CCN(Cc2cccc(O)c2)CC1 |  | inactive: -0.941%

Continued.

Row | SMILES | Potency | activity change, negative = cytotoxicity
47 | N#CCCn1cc(C(=O)NCc2ccccc2)c(-c2ccc3c(c2)OCCO3)n1 | inconclusive: 23.1 µM [cytotoxic, partial curve, poor fit] | 
48 | O=c1[nH]c(=O)n(-c2cccc(Cl)c2)c(O)c1/C=N/c1ccccn1 | inconclusive: 20.6 µM [rising, partial curve, poor fit] | 
49 | c1cc2c(c(NC3=NCCCS3)c1)CCCC2 |  | inactive: -16.7%
50 | O=[N+]([O-])c1cccc(CN2CC=C(c3ccc(F)cc3)CC2)c1 |  | inactive: 10.3%
51 | CCC(=O)c1cn(Cc2ccccc2)c2ccccc12 | inconclusive: 16.4 µM [cytotoxic, partial curve] | 
52 | C=CC[C@@H](C)CC(=O)C(CCCN=[N+]=[N-])SOOc1ccccc1 (some centres not stated) | inconclusive: 3.66 µM [rising, partial curve, poor fit] | 
53 | CN1C(=O)N(C)C(=O)C2(Cc3cc(NC(=O)c4ccccc4)ccc3N3CCCC32)C1=O (configuration not stated) | inconclusive: 18.4 µM [rising, single point] | 
54 | O=C(COc1ccc(S(=O)(=O)N2CCCCC2)cc1)N1CCN(Cc2ccccc2)CC1 | inconclusive: 20.6 µM [cytotoxic, single point] | 
55 | COC(=O)C1=C(c2ccc(Cl)c(C(F)(F)F)c2)C[C@@H]2CC[C@H]1N2C(=O)N1CCC(O)(c2ccc(Cl)cc2)CC1 | inconclusive: 18.4 µM [cytotoxic, single point] | 
56 | O=[N+]([O-])c1ccc(Cl)c([N+](=O)[O-])c1 | active: 16.4 µM | 
57 | Cc1ccc(-n2c(O)c(C=NCCN3CCOCC3)c(=O)[nH]c2=O)cc1 | inconclusive: 9.2 µM [rising, partial curve, poor fit] | 
58 | COc1cccc(OC)c1CN1CCCC(C(=O)c2cccc(Cl)c2)C1 (configuration not stated) |  | inconclusive: -2.65%
59 | CCc1ccc(CN2CCN(C(=O)Cc3ccccc3)CC2)cc1 | inconclusive: 29.1 µM [cytotoxic, single point] | 
60 | CN(CCc1ccccc1)Cc1c[nH]c2ccccc12 | inconclusive: 29.1 µM [cytotoxic, single point] | 
61 | O=c1c2ccccc2nc(/C=C/c2ccc3c(c2)OCO3)n1-c1ccccc1 | inconclusive: 14.6 µM [cytotoxic, partial curve] | 
62 | N#CC1=C(N)Oc2cc(O)ccc2C1c1ccc2c(c1)OCO2 (configuration not stated) |  | inactive: 16.1%
63 | Cc1ccc2c(c1)C1CN(C)CCC1N2C(=O)c1cccnc1Cl (configuration not stated) |  | inactive: 1.35%
64 | CC(C)CN1CCN(Cc2ccc(F)cc2Cl)CC1CCO (configuration not stated) |  | inactive: -21.6%
65 | COc1ccc(-n2nnnc2C(C2CC2)N2CCC(n3c(=O)[nH]c4ccccc43)CC2)cc1 (configuration not stated) | inconclusive: 29.1 µM [cytotoxic, partial curve, poor fit] | 
66 | O=c1[nH]c2ccccc2c(=O)n1-c1ccc(Cl)cc1Cl | inconclusive: 29.1 µM [cytotoxic, single point] | 
67 | COC(=O)C1=C(c2cccc(OCc3ccccc3)c2)C[C@@H]2CC[C@H]1N2C(=O)NCc1ccc(Br)cc1 | inconclusive: 29.1 µM [cytotoxic, single point] | 
